# Measurements reported in PubChem BioAssay AID1259308 (NCATS, 2017).
# Screen: 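Knock-downs that increase output of a recombinant reporter protein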 (primary screen)
# Cells: human HEK293 embryonic kidney cells stably expressing firefly luciferase (HEK-CMV-Luc2-Hygro)
# Knock-down reagent: single siRNA against human genes, 0.8 pmol siRNA per well
# Duration: 72 h
# Detection: 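Reporter luminescence and viable-cell signal on separate replicate plates, given as percent of non-targeting control and median/MAD z-scores, plus per-cell luciferase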
# Direction: total luciferase, z-score and total luciferase, % of control: higher = more reporter protein produced
# Rule for the call: 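Active when the median/MAD z-score for overall luciferase is greater than 3; a gene was taken forward for validation with new siRNAs if at least two of its three siRNAs passed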
# Calls: active = raised luciferase; inactive = no rise
# Here is a random part of about 59,000 reagents. About 1,510 of them (2.6%) count as active. 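Calls use total luciferase alone and ignore viability, so some active siRNAs may act by altering cell number.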 The numbers tell different reagents against one gene apart. Further read-outs or replicates are left out here.
Target gene,reagent no.,"total luciferase, z-score","total luciferase, % of control",call
CCKBR,1,2.31,128,inactive
CCKBR,2,0.527,92.4,inactive
CCKBR,3,-0.495,72.1,inactive
ACSL3,1,0.00447,82,inactive
ACSL3,2,0.28,87.5,inactive
ACSL3,3,-0.261,76.7,inactive
GDPD3,1,-1.92,43.6,inactive
GDPD3,2,-0.568,70.6,inactive
GDPD3,3,5.92,200,active
ZNF358,1,3.11,144,active
ZNF358,2,0.218,86.2,inactive
ZNF358,3,3.8,157,active
ECSCR,1,-0.193,78,inactive
ECSCR,2,0.569,93.2,inactive
ECSCR,3,2.94,140,inactive
FGF1,1,0.754,96.9,inactive
FGF1,2,-0.463,72.7,inactive
FGF1,3,2.3,128,inactive
NKAPD1,1,-0.23,77.3,inactive
NKAPD1,2,-0.00867,81.7,inactive
NKAPD1,3,-0.611,69.7,inactive
TIMELESS,1,-2.74,27.3,inactive
TIMELESS,2,-0.572,70.5,inactive
TIMELESS,3,-0.512,71.7,inactive
STAC2,1,-2.28,36.6,inactive
STAC2,2,-0.439,73.2,inactive
STAC2,3,-0.746,67,inactive
FRAT1,1,0.352,88.9,inactive
FRAT1,2,0.387,89.6,inactive
FRAT1,3,-1.16,58.7,inactive
PEG10,1,-0.229,77.3,inactive
PEG10,2,0.276,87.4,inactive
PEG10,3,-1.21,57.8,inactive
TEK,1,-0.985,62.3,inactive
TEK,2,-0.329,75.4,inactive
TEK,3,0.56,93,inactive
LOC731075,1,2.41,130,inactive
LOC731075,2,-0.0381,81.1,inactive
LOC731075,3,0.53,92.4,inactive

3 entries from above, set out differently:
{"Target gene":"TIMELESS","reagent no.":1,"total luciferase, z-score":-2.74,"total luciferase, % of control":27.3,"call":"inactive"}
{"Target gene":"TIMELESS","reagent no.":2,"total luciferase, z-score":-0.572,"total luciferase, % of control":70.5,"call":"inactive"}
{"Target gene":"TIMELESS","reagent no.":3,"total luciferase, z-score":-0.512,"total luciferase, % of control":71.7,"call":"inactive"}
